Data published in patent publication US11439689B2, “Method for detecting whether glucose metabolism is abnormal, and prevention and treatment therefor” (KAOHSIUNG MEDICAL UNIVERSITY, priority 2016, dated 2022).
For at least one compound, name, drawing or mass did not settle the structure.

System: Con1 cells
Assay: Western blotting of Con1 cells treated with HCV-specific viral inhibitor (Daclatasvir)
Assay type: cell-based
[1] = Con1 cells, different concentrations, FIG. 10
[2] = Con1 cells, increasing concentration of inhibitor, Western blotting, FIG. 9
[3] = liver cells having hepatitis C virus replicons

COC(=O)N[C@H](C(=O)N1CCC[C@H]1c1nc(-c2ccc(-c3ccc(-c4c[nH]c([C@@H]5CCCN5C(=O)[C@@H](NC(=O)OC)C(C)C)n4)cc3)cc2)c[nH]1)C(C)C [Daclatasvir]
expression of G6PC (G6Pase) [1]: down-regulated by Daclatasvir in a concentration-dependent manner | expression of PEPCK [1]: down-regulated by Daclatasvir in a concentration-dependent manner | expression of GLUT [2]: increase the expression of GPx2 and GLUT on concentration-dependent manner | expression of GPx2 [2]: increase the expression of GPx2 and GLUT on concentration-dependent manner | cellular glucose uptake [3]: effectively increased | gluconeogenesis [3]: decreased
